Results reported in PubChem BioAssay AID188 (DTP/NCI, 2004).
The mice bore no tumour; each value counts animals alive of those treated. Survivors were counted at the toxicity check, usually on the fifth day, unless a day is given; later deaths do not show. Schedules are NCI's codes, taken here to give the interval after Q, in days (D) or hours (H), and the number of doses after X.

System: CD2F1 mice, nontumored, toxicity/survival
Experiment: NCI In Vivo Anticancer Drug Screen. Data for tumor model Nontumored Animals (Toxicity Test) in CD2F1 (CDF1) mice

In the case of `C[C@]12CC[C@H](OC(=O)Cc3ccc(N(CCCl)CCCl)cc3)CC1=CC[C@@H]1[C@@H]2CC[C@]2(C)C(=O)CC[C@@H]12`, the survivor count (dose: 16.0 mg/kg/injection, schedule: Q03HX024 (ip), vehicle: saline) is reported as 8 of 8, the survivor count (dose: 32.0 mg/kg/injection, schedule: Q03HX008 (ip), vehicle: saline) is reported as 8 of 8 and the survivor count (dose: 32.0 mg/kg/injection, schedule: Q03HX016 (ip), vehicle: saline) is reported as 8 of 8. For the same compound, the survivor count (dose: 32.0 mg/kg/injection, schedule: Q03HX024 (ip), vehicle: saline) was 8 of 8, the survivor count (dose: 64.0 mg/kg/injection, schedule: Q01DX009 (ip), vehicle: saline) was 8 of 8 and the survivor count (dose: 64.0 mg/kg/injection, schedule: Q01DX009 (sc), vehicle: saline) was 8 of 8. The survivor count (dose: 64.0 mg/kg/injection, schedule: Q03HX008 (ip), vehicle: saline) was 8 of 8, the survivor count (dose: 64.0 mg/kg/injection, schedule: Q03HX016 (ip), vehicle: saline) was 8 of 8 and the survivor count (dose: 64.0 mg/kg/injection, schedule: Q03HX024 (ip), vehicle: saline) was 8 of 8. The survivor count (dose: 128.0 mg/kg/injection, schedule: Q01DX009 (ip), vehicle: saline) was 8 of 8, the survivor count (dose: 128.0 mg/kg/injection, schedule: Q01DX009 (sc), vehicle: saline) was 8 of 8 and the survivor count (dose: 128.0 mg/kg/injection, schedule: Q03HX008 (ip), vehicle: saline) was 8 of 8. For the same compound, the survivor count (dose: 128.0 mg/kg/injection, schedule: Q03HX016 (ip), vehicle: saline) was 8 of 8, the survivor count (dose: 128.0 mg/kg/injection, schedule: Q03HX024 (ip), vehicle: saline) was 7 of 8 and the survivor count (dose: 128.0 mg/kg/injection, schedule: Q04DX003 (ip), vehicle: saline) was 8 of 8. The survivor count (dose: 256.0 mg/kg/injection, schedule: Q01DX001 (ip), vehicle: saline) was 8 of 8, the survivor count (dose: 256.0 mg/kg/injection, schedule: Q01DX001 (sc), vehicle: saline) was 8 of 8 and the survivor count (dose: 256.0 mg/kg/injection, schedule: Q01DX009 (ip), vehicle: saline) was 8 of 8. For the same compound, the survivor count (dose: 256.0 mg/kg/injection, schedule: Q01DX009 (oral), vehicle: saline) was 8 of 8, the survivor count (dose: 256.0 mg/kg/injection, schedule: Q01DX009 (sc), vehicle: saline) was 8 of 8 and the survivor count (dose: 256.0 mg/kg/injection, schedule: Q03HX008 (ip), vehicle: saline) was 8 of 8. For the same compound, the survivor count (dose: 256.0 mg/kg/injection, schedule: Q03HX016 (ip), vehicle: saline) was 8 of 8, the survivor count (dose: 256.0 mg/kg/injection, schedule: Q04DX003 (ip), vehicle: saline) was 8 of 8 and the survivor count (dose: 256.0 mg/kg/injection, schedule: Q08DX002 (ip), vehicle: saline) was 8 of 8. For the same compound, the survivor count (dose: 512.0 mg/kg/injection, schedule: Q01DX001 (ip), vehicle: saline) was 8 of 8, the survivor count (dose: 512.0 mg/kg/injection, schedule: Q01DX001 (sc), vehicle: saline) was 8 of 8 and the survivor count (dose: 512.0 mg/kg/injection, schedule: Q01DX009 (ip), vehicle: saline) was 8 of 8. For the same compound, the survivor count (dose: 512.0 mg/kg/injection, schedule: Q01DX009 (oral), vehicle: saline) was 8 of 8, the survivor count (dose: 512.0 mg/kg/injection, schedule: Q01DX009 (sc), vehicle: saline) was 8 of 8 and the survivor count (dose: 512.0 mg/kg/injection, schedule: Q04DX003 (ip), vehicle: saline) was 8 of 8. The survivor count (dose: 512.0 mg/kg/injection, schedule: Q08DX002 (ip), vehicle: saline) was 8 of 8, the survivor count (dose: 1024.0 mg/kg/injection, schedule: Q01DX001 (ip), vehicle: saline) was 8 of 8 and the survivor count (dose: 1024.0 mg/kg/injection, schedule: Q01DX001 (sc), vehicle: saline) was 8 of 8. The survivor count (dose: 1024.0 mg/kg/injection, schedule: Q01DX009 (oral), vehicle: saline) was 8 of 8, the survivor count (dose: 1024.0 mg/kg/injection, schedule: Q04DX003 (ip), vehicle: saline) was 7 of 8 and the survivor count (dose: 1024.0 mg/kg/injection, schedule: Q08DX002 (ip), vehicle: saline) was 8 of 8. The survivor count (dose: 2048.0 mg/kg/injection, schedule: Q01DX001 (ip), vehicle: saline) was 8 of 8, the survivor count (dose: 2048.0 mg/kg/injection, schedule: Q01DX001 (sc), vehicle: saline) was 8 of 8 and the survivor count (dose: 2048.0 mg/kg/injection, schedule: Q01DX009 (oral), vehicle: saline) was 8 of 8. The survivor count (dose: 2048.0 mg/kg/injection, schedule: Q08DX002 (ip), vehicle: saline) was 8 of 8.
With `COC1=CC=C2[C@@H]3Cc4ccc(OC)c5c4[C@]2(CCN3CCO)C1O5` (stereo partly drawn) the survivor count (dose: 1.0 mg/kg/injection, schedule: Q01DX001 (ip), vehicle: other) was 2 of 2, the survivor count (dose: 10.0 mg/kg/injection, schedule: Q01DX001 (ip), vehicle: other) was 2 of 2 and the survivor count (dose: 100.0 mg/kg/injection, schedule: Q01DX001 (ip), vehicle: other) was 2 of 2.
For `COc1cc(C[C@H]2c3cc(OC)c(OC)cc3CCN2C)c(Oc2cc3c(cc2OC)-c2c(OC)c(OC)cc4c2[C@H](C3)N(C)CC4)cc1OC`, the survivor count (dose: 2.5 mg/kg/injection, schedule: Q03HX016 (ip), vehicle: saline) was 8 of 8, the survivor count (dose: 2.5 mg/kg/injection, schedule: Q03HX024 (ip), vehicle: saline) was 10 of 10 and the survivor count (dose: 5.0 mg/kg/injection, schedule: Q03HX008 (ip), vehicle: saline) was 8 of 8. The survivor count (dose: 5.0 mg/kg/injection, schedule: Q03HX016 (ip), vehicle: saline) was 8 of 8, the survivor count (dose: 5.0 mg/kg/injection, schedule: Q03HX024 (ip), vehicle: saline) was 8 of 8 and the survivor count (dose: 6.25 mg/kg/injection, schedule: Q01DX009 (ip), vehicle: saline) was 8 of 8. The survivor count (dose: 10.0 mg/kg/injection, schedule: Q03HX008 (ip), vehicle: saline) was 8 of 8, the survivor count (dose: 10.0 mg/kg/injection, schedule: Q03HX016 (ip), vehicle: saline) was 8 of 8 and the survivor count (dose: 10.0 mg/kg/injection, schedule: Q03HX024 (ip), vehicle: saline) was 8 of 8. For the same compound, the survivor count (dose: 12.5 mg/kg/injection, schedule: Q01DX009 (ip), vehicle: saline) was 8 of 8, the survivor count (dose: 12.5 mg/kg/injection, schedule: Q01DX009 (oral), vehicle: saline) was 8 of 8 and the survivor count (dose: 20.0 mg/kg/injection, schedule: Q03HX008 (ip), vehicle: saline) was 8 of 8. The survivor count (dose: 20.0 mg/kg/injection, schedule: Q03HX016 (ip), vehicle: saline) was 8 of 8, the survivor count (dose: 20.0 mg/kg/injection, schedule: Q03HX024 (ip), vehicle: saline) was 8 of 8 and the survivor count (dose: 25.0 mg/kg/injection, schedule: Q01DX009 (ip), vehicle: saline) was 8 of 8. For the same compound, the survivor count (dose: 25.0 mg/kg/injection, schedule: Q01DX009 (oral), vehicle: saline) was 7 of 8, the survivor count (dose: 25.0 mg/kg/injection, schedule: Q04DX003 (ip), vehicle: saline) was 8 of 8 and the survivor count (dose: 25.0 mg/kg/injection, schedule: Q08DX002 (ip), vehicle: saline) was 8 of 8. The survivor count (dose: 40.0 mg/kg/injection, schedule: Q03HX008 (ip), vehicle: saline) was 8 of 8, the survivor count (dose: 40.0 mg/kg/injection, schedule: Q03HX016 (ip), vehicle: saline) was 8 of 8 and the survivor count (dose: 40.0 mg/kg/injection, schedule: Q03HX024 (ip), vehicle: saline) was 8 of 8. For the same compound, the survivor count (dose: 50.0 mg/kg/injection, schedule: Q01DX001 (ip), vehicle: saline) was 8 of 8, the survivor count (dose: 50.0 mg/kg/injection, schedule: Q01DX009 (ip), vehicle: saline) was 8 of 8 and the survivor count (dose: 50.0 mg/kg/injection, schedule: Q01DX009 (oral), vehicle: saline) was 7 of 8. The survivor count (dose: 50.0 mg/kg/injection, schedule: Q04DX003 (ip), vehicle: saline) was 8 of 8, the survivor count (dose: 50.0 mg/kg/injection, schedule: Q08DX002 (ip), vehicle: saline) was 8 of 8 and the survivor count (dose: 80.0 mg/kg/injection, schedule: Q03HX008 (ip), vehicle: saline) was 8 of 8. The survivor count (dose: 100.0 mg/kg/injection, schedule: Q01DX001 (ip), vehicle: saline) was 8 of 8, the survivor count (dose: 100.0 mg/kg/injection, schedule: Q01DX001 (oral), vehicle: saline) was 8 of 8 and the survivor count (dose: 100.0 mg/kg/injection, schedule: Q01DX009 (ip), vehicle: saline) was 8 of 8. For the same compound, the survivor count (dose: 100.0 mg/kg/injection, schedule: Q01DX009 (oral), vehicle: saline) was 8 of 8, the survivor count (dose: 100.0 mg/kg/injection, schedule: Q04DX003 (ip), vehicle: saline) was 8 of 8 and the survivor count (dose: 100.0 mg/kg/injection, schedule: Q08DX002 (ip), vehicle: saline) was 8 of 8. The survivor count (dose: 200.0 mg/kg/injection, schedule: Q01DX001 (ip), vehicle: saline) was 8 of 8, the survivor count (dose: 200.0 mg/kg/injection, schedule: Q01DX001 (oral), vehicle: saline) was 7 of 8 and the survivor count (dose: 200.0 mg/kg/injection, schedule: Q01DX009 (oral), vehicle: saline) was 6 of 8. For the same compound, the survivor count (dose: 200.0 mg/kg/injection, schedule: Q04DX003 (ip), vehicle: saline) was 8 of 8, the survivor count (dose: 200.0 mg/kg/injection, schedule: Q08DX002 (ip), vehicle: saline) was 8 of 8 and the survivor count (dose: 400.0 mg/kg/injection, schedule: Q01DX001 (ip), vehicle: saline) was 8 of 8. The survivor count (dose: 400.0 mg/kg/injection, schedule: Q01DX001 (oral), vehicle: saline) was 7 of 8, the survivor count (dose: 400.0 mg/kg/injection, schedule: Q04DX003 (ip), vehicle: saline) was 8 of 8 and the survivor count (dose: 400.0 mg/kg/injection, schedule: Q08DX002 (ip), vehicle: saline) was 8 of 8. The survivor count (dose: 800.0 mg/kg/injection, schedule: Q01DX001 (ip), vehicle: saline) was 8 of 8, the survivor count (dose: 800.0 mg/kg/injection, schedule: Q01DX001 (oral), vehicle: saline) was 8 of 8 and the survivor count (dose: 1600.0 mg/kg/injection, schedule: Q01DX001 (oral), vehicle: saline) was 8 of 8.
For `CCCCN(C)N=Nc1ccc(C(N)=O)cc1`, the survivor count (dose: 19.0 mg/kg/injection, schedule: Q01DX009 (ip), vehicle: Klucel (hydroxypropylcellulose) (HPC)) was 10 of 10, the survivor count (dose: 29.0 mg/kg/injection, schedule: Q01DX009 (ip), vehicle: Klucel (hydroxypropylcellulose) (HPC)) was 10 of 10 and the survivor count (dose: 44.0 mg/kg/injection, schedule: Q01DX009 (ip), vehicle: Klucel (hydroxypropylcellulose) (HPC)) was 10 of 10. The survivor count (dose: 67.0 mg/kg/injection, schedule: Q01DX009 (ip), vehicle: Klucel (hydroxypropylcellulose) (HPC)) was 10 of 10 and the survivor count (dose: 100.0 mg/kg/injection, schedule: Q01DX009 (ip), vehicle: Klucel (hydroxypropylcellulose) (HPC)) was 10 of 10.
In the case of `Cc1nc(N)nc(N)c1-c1ccc(Cl)c(Cl)c1`, the survivor count (dose: 2.0 mg/kg/injection, schedule: Q01DX009 (sc), vehicle: other) is reported as 10 of 10, the survivor count (dose: 4.0 mg/kg/injection, schedule: Q01DX009 (sc), vehicle: other) is reported as 10 of 10 and the survivor count (dose: 6.0 mg/kg/injection, schedule: Q01DX009 (sc), vehicle: other) is reported as 10 of 10. The survivor count (dose: 8.0 mg/kg/injection, schedule: Q01DX009 (sc), vehicle: other) was 9 of 9 and the survivor count (dose: 10.0 mg/kg/injection, schedule: Q01DX009 (sc), vehicle: other) was 10 of 10.
